Values of other authors as cited in patent US4609675A, “Stable, high dose, high bulk density ibuprofen granulations for tablet and capsule manufacturing” (priority 1984, dated 1986).

Conditions: in words

- water solubility: poorly water soluble
SMILES: CC(C)Cc1ccc(C(C)C(=O)O)cc1 (stereo not shown) [Ibuprofen, 2-(4-isobutylphenyl)-propionic acid]
